## Drug screen on melanoma cell lines: apoptosis marker

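Human melanoma cell lines in 1,536-well plates were treated with two drugs together for 72 h, then fixed, stained and imaged. Values are the share of nuclei positive for cleaved PARP as a percentage of the same share in the DMSO control: 100 is the control level, higher means more apoptosis. Concentrations were fixed for each drug; these are the higher of two levels. The file gives one value for each pair and line, without errors, so small differences may be noise. Basal and induced levels differ widely between cell lines.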 This is part of the screen, not chosen by result. A dash means that no value is listed here.

Drug key:
bortezomib (5 nM): CC(C)C[C@H](NC(=O)[C@H](Cc1ccccc1)NC(=O)c1cnccn1)B(O)O
dovitinib (500 nM): CN1CCN(c2ccc3nc(-c4c(N)c5c(F)cccc5[nH]c4=O)[nH]c3c2)CC1
CP-690550 (5000 nM): C[C@@H]1CCN(C(=O)CC#N)C[C@@H]1N(C)c1ncnc2[nH]ccc12
dorsomorphin (2000 nM): c1cc(-c2cnn3cc(-c4ccc(OCCN5CCCCC5)cc4)cnc23)ccn1
CHIR-265 (400 nM): Cn1c(Nc2ccc(C(F)(F)F)cc2)nc2cc(Oc3ccnc(-c4ncc(C(F)(F)F)[nH]4)c3)ccc21
PF-04217903 (5000 nM): OCCn1cc(-c2cnc3nnn(Cc4ccc5ncccc5c4)c3n2)cn1
tanespimycin (10 nM): C=CCNC1=C2C[C@@H](C)C[C@H](OC)[C@H](O)[C@@H](C)/C=C(\C)[C@H](OC(N)=O)[C@@H](OC)/C=C\C=C(/C)C(=O)NC(=CC1=O)C2=O
palbociclib (200 nM): CC(=O)c1c(C)c2cnc(Nc3ccc(N4CCNCC4)cn3)nc2n(C2CCCC2)c1=O
nutlin-3 (500 nM): COc1ccc(C2=N[C@@H](c3ccc(Cl)cc3)[C@@H](c3ccc(Cl)cc3)N2C(=O)N2CCNC(=O)C2)c(OC(C)C)c1
vatalanib (10000 nM): Clc1ccc(Nc2nnc(Cc3ccncc3)c3ccccc23)cc1

Pair,WM115,LOX IMVI,G-361,RPMI-7951,IST-MEL1,LB2518-MEL
bortezomib + tanespimycin,1420,160,12300,557,163,527
CHIR-265 + vatalanib,668,180,829,147,210,314
CHIR-265 + palbociclib,747,92.9,886,225,239,885
tanespimycin + nutlin-3,2380,134,267,777,123,214
palbociclib + tanespimycin,2380,142,157,304,118,194
nutlin-3 + CP-690550,97.3,54.9,229,51.8,70.2,142
CP-690550 + dorsomorphin,78.5,80.1,42.3,94.9,165,104
palbociclib + CP-690550,143,90.1,148,67.5,154,167
dovitinib + CHIR-265,535,37.8,411,309,439,799
dorsomorphin + CHIR-265,204,107,337,78.4,235,256
PF-04217903 + nutlin-3,142,59.8,51.5,121,178,140
nutlin-3 + bortezomib,3000,567,5980,1110,410,12600
dovitinib + nutlin-3,238,150,86.9,27.6,67.8,171
bortezomib + dorsomorphin,198,333,4330,650,984,2610
palbociclib + dorsomorphin,175,43.5,257,199,294,608
dovitinib + vatalanib,200,207,191,192,89.8,623
tanespimycin + PF-04217903,1020,129,295,140,177,123
dovitinib + dorsomorphin,129,78.5,258,129,254,205
PF-04217903 + CP-690550,54.5,175,103,156,87.7,86.5
CP-690550 + tanespimycin,703,316,235,155,43.5,63.8
dorsomorphin + tanespimycin,1170,93.2,168,398,181,154
bortezomib + vatalanib,6920,933,5920,5580,1620,-
tanespimycin + CHIR-265,9310,235,1240,624,237,2140
nutlin-3 + CHIR-265,1660,264,772,394,275,248
vatalanib + PF-04217903,64.1,52.3,115,114,89.7,110
dovitinib + palbociclib,156,170,154,42.5,96.2,173
dorsomorphin + vatalanib,120,69.5,257,146,39.5,61.2
bortezomib + CP-690550,915,1240,6090,1340,1310,3960
bortezomib + dovitinib,6960,314,6400,1450,617,2630
PF-04217903 + CHIR-265,358,174,462,174,150,461
dovitinib + CP-690550,463,315,352,105,166,199
dovitinib + PF-04217903,169,64.5,316,736,191,179
bortezomib + CHIR-265,1070,395,14600,1580,689,3290
vatalanib + nutlin-3,192,127,138,172,238,232
palbociclib + vatalanib,360,49.0,160,123,58.1,98.3
CP-690550 + CHIR-265,194,259,750,199,57.0,628
tanespimycin + vatalanib,1020,49.6,398,1270,85.9,379
palbociclib + nutlin-3,203,172,142,152,38.3,75.2
PF-04217903 + dorsomorphin,120,108,251,77.3,116,89.0
PF-04217903 + palbociclib,170,65.8,128,46.7,45.9,123

Once more, the final 3:

Pair,WM115,LOX IMVI,G-361,RPMI-7951,IST-MEL1,LB2518-MEL
palbociclib + nutlin-3,203,172,142,152,38.3,75.2
PF-04217903 + dorsomorphin,120,108,251,77.3,116,89.0
PF-04217903 + palbociclib,170,65.8,128,46.7,45.9,123

From a melanoma drug combination screen (doi:10.1371/journal.pone.0140310); values rounded.